Here are results for 37 substances from patent publication US7642244B2 (Hoffmann-La Roche Inc., priority 2005, dated 2010).

One data set can be described thus: general procedure: Fmoc solid-phase peptide synthesis; Fmoc-Linker-BHA resin; HBTU/HOBt, DIEA. The note with it: conjugation step.
The substance “IK(PEG30,000 SSA)-Pqa-RHYLNWVTRQ(N-methyl)RY” displayed a conjugation yield of 93.8%.
The same measure, in the same setting: in the case of “Ac-Ile-Lys(PEG30,000 SSA)-Pqa-RHYLNWVTRQ(N-methyl)RV” it was 81.4%.
In the case of “(PEG30,000 SPA)IK-Pqa-RHYLNWVTRQ(N-methyl)RY”, the conjugation yield is 69.8%.
“(PEG40,000 BTC)-IK-Pqa-RHYLNWVTRQ(N-methylRY”: the conjugation yield stood at 60.4%.
Take “(PEG30,000)-beta-SBA-INIe-Pqa-RHYLNWVTRQ(N-methyl)RY”: the conjugation yield was found to be 93.4%.
Regarding “(PEG30,000)-SSA-INIe-Pqa-RHYLNWVTRQ(N-methyl)RY”, the conjugation yield was found to be 94.1%.
The same measure, in the same setting: the result for “Ac-Ile-Lys(PEG30,000 SPA)-Pqa-RHYLNWVTRQ(Ng-methyl)RY” reads 83.3%.

Still in this data set, the particulars now being: conjugation step, 280 nm.
With “IK(PEG30,000 SSA)-Pqa-RHYLNWVTRQ(N-methyl)RY”, the “final HPLC purity” value is given as over 95%.
As to “Ac-Ile-Lys(PEG30,000 SSA)-Pqa-RHYLNWVTRQ(N-methyl)RV”, the “final HPLC purity” value is over 97%.
Take “(PEG30,000 SPA)IK-Pqa-RHYLNWVTRQ(N-methyl)RY”: the “final HPLC purity” value is given as over 97%.
Take “(PEG40,000 BTC)-IK-Pqa-RHYLNWVTRQ(N-methylRY”: the “final HPLC purity” value is recorded as over 90%.
“(PEG30,000)-beta-SBA-INIe-Pqa-RHYLNWVTRQ(N-methyl)RY”: the “final HPLC purity” value was over 90%.
Still for that read-out and setting: in the case of “(PEG30,000)-SSA-INIe-Pqa-RHYLNWVTRQ(N-methyl)RY” it was over 90%.
Still for that read-out and setting: in the case of “Ac-Ile-Lys(PEG30,000 SPA)-Pqa-RHYLNWVTRQ(Ng-methyl)RY” it was over 95%.

Staying with this data set, now noted: conjugation step, overall.
As for “IK(PEG30,000 SSA)-Pqa-RHYLNWVTRQ(N-methyl)RY”, the conjugation yield is 89.5%.

Staying with this data set, now noted: whole synthesis.
Substance “Trimetyl acetyl-IK-Pqa-RHYLNWVTRQ(N-methyl)RY” showed an isolated mass of 6 mg.
As to IK-Pqa-RHYLNLVTRQ(N-methyl)R (m-)Y, the isolated mass came to 38.5 mg.
IK-Pqa-RHYLNLVTRQ(N-methyl)RW displayed an isolated mass of 57 mg.
On the same count and under the same terms, in the case of IK-Pqa-RHYLNLVTRQ(N-methyl)R(1)NaI it was 45 mg.
Same read-out and setting: the result for IK-Pqa-RHYLNLVTRQRY reads 48 mg.
The same measure, in the same setting: in the case of IK-Pqa-RHYLNLVTRQ(N-methyl)RF(4-O-CH3) it was 72 mg; in that of “IK-Pqa-RHYLNLVTRQ(N-methyl)R(2,3.4,5,6-Penta-F)Phe”, 89 mg.
As for IK-Pqa-RHYLNLVTRQ(N-methyl)R(4-F)Phe, the isolated mass stood at 35 mg.
On the same count and under the same terms, in the case of “IK-Pqa-RHYLNLVTRQ(N-methyl)R (2–6 di Me)Y” it was 13.5 mg; in that of IK-Pqa-RHYLNLVTRQ(N-methyl)R (3-I)Y, 41 mg.
In the case of IK-Pqa-RHYLNLVTRQ(N-methyl)R(2)NaI, the isolated mass is reported as 43 mg.
The same measure, in the same setting: the result for Ac-IK-Pqa-RHYLNWVTRQ(N-methyl)RY reads 68 mg; that for “IK-Pqa-RHYLNLVTRQ(N-methyl)R (2–6 di F)Y”, 49.3 mg.
As for Adamtyl-IK-Pqa-RHYLNWVTRQ(N.methyl)RY, the isolated mass was 29 mg.
The same measure, in the same setting: in the case of Benzoyl-IK-Pqa-RHYLNWVTRQ(N-methyl)RY it was 23 mg; in that of IK-Pqa-RHYLNLVTRQ(N-methyl)R(4-CF3)Phe, 81 mg; in that of IK-Pqa-RHYLNLVTRQR-C-α-Me-Tyr, 35.1 mg.
The same measure, in the same setting: the result for IK-Pqa-RHYLNWVTRQ(N-methyl)RY reads 130 mg.
For the substance IK-Pqa-RHYLNLVTRQ(N-methyl)RCH, the isolated mass turned out to be 49 mg.
With “IK-Pqa-RHYLNLVTRQ(N-methyl)R (3–5 di F)Y”, the isolated mass is reported as 28 mg.
Consider “Ac-IK-Pqa-RHYLNWVTRQ(N-methyl)R (2–6 di F)Y”, for which the isolated mass is given as 24 mg.
For the substance IK-Pqa-RHYLNLVTRQ(N-methyl)R(4-NH2)Phe, the isolated mass came to 51.4 mg.
Pentyl-IK-Pqa-RHYLNWVTRQ(N-methyl)RY displayed an isolated mass of 67 mg.
Take IK-Pqa-RHYLNLVTRQ(N-methyl)R(3-F)Phe: the isolated mass was found to be 84 mg.
“IK-Pqa-RHYLNLVTRQ(N-methyl)R(3.4-diCl)Phe” showed an isolated mass of 46 mg.
The same measure, in the same setting: in the case of INIe-Pqa-RHYLNWVTRQ(N-methyl)RY it was 84 mg; in that of “Cyclohexyl-IK-Pqa-RHYLNWVTRQ(N-methyl)RY”, 15 mg.
On the same count and under the same terms, the result for “IK-Pqa-RHYLNLVTRQ(N-methyl)R(4-CH2OH)Phe” reads 24 mg; that for IK-Pqa-RHYLNLVTRQ(N-methyl)RY, 32 mg; that for IK-Pqa-RHYLNLVTRQ(N-methyl)RF, 85.3 mg.

The data set is the same for the next values; noted with them: whole synthesis, scale of the general procedure 0.25 mmol.
For the substance “Trimetyl acetyl-IK-Pqa-RHYLNWVTRQ(N-methyl)RY”, the isolated yield stood at 1%.
Still for that read-out and setting: in the case of IK-Pqa-RHYLNLVTRQ(N-methyl)R (m-)Y it was 7%; in that of IK-Pqa-RHYLNLVTRQ(N-methyl)RW, 10%; in that of IK-Pqa-RHYLNLVTRQ(N-methyl)R(1)NaI, 8%.
For the substance IK-Pqa-RHYLNLVTRQRY, the isolated yield was 9%.
Still for that read-out and setting: in the case of IK-Pqa-RHYLNLVTRQ(N-methyl)RF(4-O-CH3) it was 13%.
“IK-Pqa-RHYLNLVTRQ(N-methyl)R(2,3.4,5,6-Penta-F)Phe” yielded an isolated yield of 16%.
Take IK-Pqa-RHYLNLVTRQ(N-methyl)R(4-F)Phe: the isolated yield worked out at 7%.
Same read-out and setting: the result for “IK-Pqa-RHYLNLVTRQ(N-methyl)R (2–6 di Me)Y” reads 3%.
In turn, IK-Pqa-RHYLNLVTRQ(N-methyl)R (3-I)Y yielded an isolated yield of 7%.
IK-Pqa-RHYLNLVTRQ(N-methyl)R(2)NaI yielded an isolated yield of 8%.
For Ac-IK-Pqa-RHYLNWVTRQ(N-methyl)RY, the isolated yield was determined as 12%.
“IK-Pqa-RHYLNLVTRQ(N-methyl)R (2–6 di F)Y”: the isolated yield came out at 9%.
Regarding Adamtyl-IK-Pqa-RHYLNWVTRQ(N.methyl)RY, the isolated yield was determined as 5%.
On the same count and under the same terms, in the case of Benzoyl-IK-Pqa-RHYLNWVTRQ(N-methyl)RY it was 4%; in that of IK-Pqa-RHYLNLVTRQ(N-methyl)R(4-CF3)Phe, 15%; in that of IK-Pqa-RHYLNLVTRQR-C-α-Me-Tyr, 7%.
Still for that read-out and setting: in the case of IK-Pqa-RHYLNWVTRQ(N-methyl)RY it was 23%; in that of IK-Pqa-RHYLNLVTRQ(N-methyl)RCH, 9%.
Still for that read-out and setting: the result for “IK-Pqa-RHYLNLVTRQ(N-methyl)R (3–5 di F)Y” reads 5%; that for “Ac-IK-Pqa-RHYLNWVTRQ(N-methyl)R (2–6 di F)Y”, 4%; that for IK-Pqa-RHYLNLVTRQ(N-methyl)R(4-NH2)Phe, 10%.
The substance Pentyl-IK-Pqa-RHYLNWVTRQ(N-methyl)RY displayed an isolated yield of 12%.
Still for that read-out and setting: the result for IK-Pqa-RHYLNLVTRQ(N-methyl)R(3-F)Phe reads 16%.
Regarding “IK-Pqa-RHYLNLVTRQ(N-methyl)R(3.4-diCl)Phe”, the isolated yield is on record as 8%.
In turn, INIe-Pqa-RHYLNWVTRQ(N-methyl)RY gave an isolated yield of 15%.
The substance “Cyclohexyl-IK-Pqa-RHYLNWVTRQ(N-methyl)RY” gave an isolated yield of 3%.
Same read-out and setting: the result for “IK-Pqa-RHYLNLVTRQ(N-methyl)R(4-CH2OH)Phe” reads 4%.
Still for that read-out and setting: in the case of IK-Pqa-RHYLNLVTRQ(N-methyl)RY it was 6%; in that of IK-Pqa-RHYLNLVTRQ(N-methyl)RF, 16%.
